The list shows a part of the results.
Legend:
Assay in all cases: log2 fold change, soluble protein after heating vs DMSO (PISA); higher = thermal stabilisation; K562 lysate, 10 uM; active = over 0.2 and 3.5 SD of the protein, either way, in both replicates (recomputed)
vemurafenib = compound: CCCS(=O)(=O)Nc1ccc(F)c(C(=O)c2c[nH]c3ncc(-c4ccc(Cl)cc4)cc23)c1F [vemurafenib]
Summary of the method: (§1)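 Soluble protein was defined as the supernatant remaining after 21,000xg for 90 min, following pooling of heated aliquots and adjustment to 0.5% NP-40 at 4°C. Before that, crude K562 extract at 1 mg/mL protein in PBS pH 7.4 with 1 mM MgCl2 was treated with 10 μM compound for 30 min and heated for 3 min across 48°C-58°C. Quantification used TMTpro 16plex LC-MS/MS with channel sums equalised, and values are log-two fold changes in thermal stability relative to solvent controls from duplicates.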

By UniProt entry, the sequences of proteins in these tests, tags left out. Where a name states a change or a piece, a line headed by the entry shows the natural chain unless it says otherwise.
UniProt P07225: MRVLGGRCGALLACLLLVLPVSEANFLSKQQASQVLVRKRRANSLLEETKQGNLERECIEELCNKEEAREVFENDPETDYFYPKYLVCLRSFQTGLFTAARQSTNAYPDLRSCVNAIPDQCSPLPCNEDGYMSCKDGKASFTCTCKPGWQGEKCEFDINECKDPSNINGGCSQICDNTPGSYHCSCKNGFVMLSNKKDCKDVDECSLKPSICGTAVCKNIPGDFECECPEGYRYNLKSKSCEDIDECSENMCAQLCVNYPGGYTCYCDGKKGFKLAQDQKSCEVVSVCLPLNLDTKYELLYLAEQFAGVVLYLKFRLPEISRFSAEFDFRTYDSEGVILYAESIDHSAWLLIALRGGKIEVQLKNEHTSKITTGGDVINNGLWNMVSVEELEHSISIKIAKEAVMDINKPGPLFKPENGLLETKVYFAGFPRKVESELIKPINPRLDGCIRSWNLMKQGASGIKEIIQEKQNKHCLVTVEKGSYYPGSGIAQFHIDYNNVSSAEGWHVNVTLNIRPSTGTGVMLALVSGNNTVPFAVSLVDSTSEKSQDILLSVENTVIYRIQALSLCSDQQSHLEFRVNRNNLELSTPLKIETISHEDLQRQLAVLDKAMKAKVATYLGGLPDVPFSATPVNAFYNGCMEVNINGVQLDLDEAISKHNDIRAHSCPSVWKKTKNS
UniProt Q9Y570: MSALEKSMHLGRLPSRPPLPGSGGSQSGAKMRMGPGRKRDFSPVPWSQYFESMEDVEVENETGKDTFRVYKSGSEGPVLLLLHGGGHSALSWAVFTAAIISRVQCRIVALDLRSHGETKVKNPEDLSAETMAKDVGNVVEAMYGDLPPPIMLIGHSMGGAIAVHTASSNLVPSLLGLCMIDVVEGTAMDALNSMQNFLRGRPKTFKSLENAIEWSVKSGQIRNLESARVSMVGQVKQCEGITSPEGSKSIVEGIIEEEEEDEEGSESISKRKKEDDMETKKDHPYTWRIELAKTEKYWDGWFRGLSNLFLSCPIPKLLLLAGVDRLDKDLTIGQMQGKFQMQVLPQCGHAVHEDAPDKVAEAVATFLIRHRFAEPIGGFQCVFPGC
UniProt P13861, whole entry, looked up: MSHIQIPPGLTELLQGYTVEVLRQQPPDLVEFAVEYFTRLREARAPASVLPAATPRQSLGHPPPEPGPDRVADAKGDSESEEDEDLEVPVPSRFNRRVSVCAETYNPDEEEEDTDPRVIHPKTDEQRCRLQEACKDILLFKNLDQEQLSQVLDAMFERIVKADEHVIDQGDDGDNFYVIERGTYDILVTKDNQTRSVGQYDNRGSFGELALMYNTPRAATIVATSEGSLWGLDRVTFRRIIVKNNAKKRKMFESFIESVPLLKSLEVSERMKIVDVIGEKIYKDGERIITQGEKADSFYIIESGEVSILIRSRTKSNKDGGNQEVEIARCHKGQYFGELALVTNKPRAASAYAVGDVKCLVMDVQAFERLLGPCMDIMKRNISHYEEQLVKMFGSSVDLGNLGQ
UniProt O43172: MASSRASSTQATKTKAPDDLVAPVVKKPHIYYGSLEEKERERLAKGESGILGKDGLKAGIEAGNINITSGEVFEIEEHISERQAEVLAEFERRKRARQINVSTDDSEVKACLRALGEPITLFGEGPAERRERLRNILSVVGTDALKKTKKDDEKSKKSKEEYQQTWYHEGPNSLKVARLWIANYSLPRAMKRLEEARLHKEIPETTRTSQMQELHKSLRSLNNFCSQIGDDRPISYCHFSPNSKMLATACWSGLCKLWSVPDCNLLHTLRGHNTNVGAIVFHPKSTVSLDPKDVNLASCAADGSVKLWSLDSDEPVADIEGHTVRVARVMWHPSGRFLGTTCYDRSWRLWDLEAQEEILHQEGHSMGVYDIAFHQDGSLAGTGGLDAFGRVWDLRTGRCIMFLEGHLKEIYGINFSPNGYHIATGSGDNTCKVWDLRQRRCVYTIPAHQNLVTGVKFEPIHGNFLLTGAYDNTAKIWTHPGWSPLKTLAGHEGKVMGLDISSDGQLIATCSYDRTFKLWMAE
UniProt P62714, whole entry, looked up: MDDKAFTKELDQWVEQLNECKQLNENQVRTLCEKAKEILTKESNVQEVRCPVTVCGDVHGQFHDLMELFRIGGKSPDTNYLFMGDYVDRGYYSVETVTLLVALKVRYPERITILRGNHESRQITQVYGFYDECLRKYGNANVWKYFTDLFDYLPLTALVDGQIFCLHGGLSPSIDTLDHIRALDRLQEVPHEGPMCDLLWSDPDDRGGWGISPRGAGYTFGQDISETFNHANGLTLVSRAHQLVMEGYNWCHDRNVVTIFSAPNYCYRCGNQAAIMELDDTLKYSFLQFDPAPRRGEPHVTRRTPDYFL
UniProt Q9HCU5: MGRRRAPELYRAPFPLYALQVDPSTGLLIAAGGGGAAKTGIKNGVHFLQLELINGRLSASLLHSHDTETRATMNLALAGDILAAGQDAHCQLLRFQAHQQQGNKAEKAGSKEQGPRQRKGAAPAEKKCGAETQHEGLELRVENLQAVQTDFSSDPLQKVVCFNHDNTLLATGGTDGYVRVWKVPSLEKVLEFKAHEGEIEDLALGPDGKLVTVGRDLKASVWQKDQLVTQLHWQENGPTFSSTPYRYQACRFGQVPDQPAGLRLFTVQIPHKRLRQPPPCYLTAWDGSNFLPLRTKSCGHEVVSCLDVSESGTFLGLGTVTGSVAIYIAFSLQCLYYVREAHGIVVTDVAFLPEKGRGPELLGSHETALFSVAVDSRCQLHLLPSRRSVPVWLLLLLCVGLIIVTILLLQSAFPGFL
UniProt Q969Q6: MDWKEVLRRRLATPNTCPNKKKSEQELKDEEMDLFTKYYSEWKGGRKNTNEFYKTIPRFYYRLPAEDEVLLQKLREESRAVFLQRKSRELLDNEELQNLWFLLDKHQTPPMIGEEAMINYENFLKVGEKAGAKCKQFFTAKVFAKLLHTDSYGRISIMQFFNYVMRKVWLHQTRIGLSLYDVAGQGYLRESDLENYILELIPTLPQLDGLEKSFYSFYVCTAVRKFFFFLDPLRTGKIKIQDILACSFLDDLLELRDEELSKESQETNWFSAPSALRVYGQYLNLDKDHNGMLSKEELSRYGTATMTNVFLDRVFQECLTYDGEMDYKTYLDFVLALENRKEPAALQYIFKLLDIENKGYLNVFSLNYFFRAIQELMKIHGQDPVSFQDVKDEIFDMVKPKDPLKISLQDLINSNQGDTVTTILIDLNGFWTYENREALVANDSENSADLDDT
UniProt Q96BP3: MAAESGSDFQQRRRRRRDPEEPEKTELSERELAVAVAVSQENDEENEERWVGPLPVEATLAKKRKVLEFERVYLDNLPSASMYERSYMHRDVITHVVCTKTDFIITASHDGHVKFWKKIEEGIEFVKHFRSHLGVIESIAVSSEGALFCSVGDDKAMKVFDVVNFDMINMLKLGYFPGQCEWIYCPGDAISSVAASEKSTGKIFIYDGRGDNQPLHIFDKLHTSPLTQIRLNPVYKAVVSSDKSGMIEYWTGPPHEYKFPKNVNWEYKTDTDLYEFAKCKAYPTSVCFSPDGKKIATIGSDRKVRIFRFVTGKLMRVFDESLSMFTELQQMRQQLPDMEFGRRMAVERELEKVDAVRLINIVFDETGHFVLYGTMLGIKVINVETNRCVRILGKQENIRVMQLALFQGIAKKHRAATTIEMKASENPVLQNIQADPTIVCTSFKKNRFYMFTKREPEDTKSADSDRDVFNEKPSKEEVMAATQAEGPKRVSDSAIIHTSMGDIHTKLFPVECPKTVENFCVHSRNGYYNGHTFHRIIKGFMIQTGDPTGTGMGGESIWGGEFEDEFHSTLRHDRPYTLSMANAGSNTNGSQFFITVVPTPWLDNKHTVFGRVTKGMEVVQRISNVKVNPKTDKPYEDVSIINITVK
UniProt Q8TAP8: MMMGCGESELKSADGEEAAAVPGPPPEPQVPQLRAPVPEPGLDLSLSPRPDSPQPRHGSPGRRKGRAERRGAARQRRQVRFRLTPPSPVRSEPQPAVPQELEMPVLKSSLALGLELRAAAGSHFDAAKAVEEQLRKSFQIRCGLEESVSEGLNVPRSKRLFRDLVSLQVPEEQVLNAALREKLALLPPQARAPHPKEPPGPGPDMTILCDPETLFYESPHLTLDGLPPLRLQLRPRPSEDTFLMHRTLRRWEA
UniProt Q13523: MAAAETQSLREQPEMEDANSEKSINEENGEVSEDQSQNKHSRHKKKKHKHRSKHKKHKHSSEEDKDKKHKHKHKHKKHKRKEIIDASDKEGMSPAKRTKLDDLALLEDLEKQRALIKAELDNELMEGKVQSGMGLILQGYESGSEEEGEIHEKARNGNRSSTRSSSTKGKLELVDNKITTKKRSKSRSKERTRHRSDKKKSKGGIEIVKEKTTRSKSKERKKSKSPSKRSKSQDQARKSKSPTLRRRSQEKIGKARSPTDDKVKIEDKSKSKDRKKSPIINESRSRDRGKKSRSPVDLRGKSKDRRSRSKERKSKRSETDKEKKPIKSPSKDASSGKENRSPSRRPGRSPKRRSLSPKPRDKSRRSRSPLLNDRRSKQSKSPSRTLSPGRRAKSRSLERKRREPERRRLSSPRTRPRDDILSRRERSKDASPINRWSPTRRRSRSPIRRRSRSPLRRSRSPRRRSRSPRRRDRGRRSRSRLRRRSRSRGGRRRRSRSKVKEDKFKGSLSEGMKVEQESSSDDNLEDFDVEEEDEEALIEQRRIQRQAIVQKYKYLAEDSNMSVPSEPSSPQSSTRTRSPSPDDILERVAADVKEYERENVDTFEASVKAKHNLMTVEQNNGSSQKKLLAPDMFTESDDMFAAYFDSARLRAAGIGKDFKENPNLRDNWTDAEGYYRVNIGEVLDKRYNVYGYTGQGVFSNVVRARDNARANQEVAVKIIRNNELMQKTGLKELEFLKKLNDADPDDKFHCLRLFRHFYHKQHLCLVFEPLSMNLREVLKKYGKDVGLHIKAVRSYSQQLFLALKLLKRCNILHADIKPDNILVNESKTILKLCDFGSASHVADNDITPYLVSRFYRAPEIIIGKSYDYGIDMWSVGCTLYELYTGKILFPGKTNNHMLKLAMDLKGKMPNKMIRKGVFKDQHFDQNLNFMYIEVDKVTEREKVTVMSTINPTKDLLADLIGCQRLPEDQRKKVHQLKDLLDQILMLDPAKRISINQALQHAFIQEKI
UniProt Q9UMR5: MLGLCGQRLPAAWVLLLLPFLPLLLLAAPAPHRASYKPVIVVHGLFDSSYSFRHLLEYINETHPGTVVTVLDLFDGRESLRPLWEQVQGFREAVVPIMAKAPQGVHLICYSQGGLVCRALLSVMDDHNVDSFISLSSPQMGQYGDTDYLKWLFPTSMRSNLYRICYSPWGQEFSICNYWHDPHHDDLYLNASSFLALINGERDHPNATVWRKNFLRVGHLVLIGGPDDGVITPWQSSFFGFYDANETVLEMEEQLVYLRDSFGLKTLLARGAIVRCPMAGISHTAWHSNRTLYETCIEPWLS
UniProt P30041: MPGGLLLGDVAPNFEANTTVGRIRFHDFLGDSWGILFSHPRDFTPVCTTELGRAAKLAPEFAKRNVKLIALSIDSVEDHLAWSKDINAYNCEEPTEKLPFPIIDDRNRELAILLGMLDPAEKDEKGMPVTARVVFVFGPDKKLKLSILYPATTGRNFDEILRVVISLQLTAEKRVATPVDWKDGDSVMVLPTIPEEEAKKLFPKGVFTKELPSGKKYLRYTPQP
UniProt P30153, whole entry, looked up: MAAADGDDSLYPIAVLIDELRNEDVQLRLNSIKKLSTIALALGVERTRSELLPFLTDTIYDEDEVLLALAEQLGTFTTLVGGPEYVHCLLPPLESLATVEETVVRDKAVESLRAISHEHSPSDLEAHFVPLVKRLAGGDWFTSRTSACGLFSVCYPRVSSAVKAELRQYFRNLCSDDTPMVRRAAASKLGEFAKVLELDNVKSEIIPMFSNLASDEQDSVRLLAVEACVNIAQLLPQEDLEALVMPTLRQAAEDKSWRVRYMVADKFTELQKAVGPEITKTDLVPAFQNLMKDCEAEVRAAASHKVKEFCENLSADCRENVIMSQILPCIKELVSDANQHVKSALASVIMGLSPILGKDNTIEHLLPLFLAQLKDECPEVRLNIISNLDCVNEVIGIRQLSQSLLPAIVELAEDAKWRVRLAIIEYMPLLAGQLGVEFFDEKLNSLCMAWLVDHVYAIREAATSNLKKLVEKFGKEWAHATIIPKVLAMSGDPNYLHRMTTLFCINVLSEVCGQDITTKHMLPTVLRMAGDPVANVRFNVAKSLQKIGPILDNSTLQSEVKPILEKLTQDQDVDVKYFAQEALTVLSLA

[1] = compound: CCCS(=O)(=O)Nc1ccc(F)c(C(=O)c2c[nH]c3ncc(Cl)cc23)c1F
Summary of the method: as §1

barasertib = compound: CCN(CCCOc1ccc2c(Nc3cc(CC(=O)Nc4cccc(F)c4)[nH]n3)ncnc2c1)CCOP(=O)(O)O [barasertib]
Summary of the method: as §1

[2] = compound: CC[C@@H]1C(=O)N(C)c2cnc(Nc3ccc(C(=O)NC4CCN(C)CC4)cc3OC)nc2N1C1CCCC1
Summary of the method: as §1

volasertib = compound: CC[C@@H]1C(=O)N(C)c2cnc(Nc3ccc(C(=O)N[C@H]4CC[C@H](N5CCN(CC6CC6)CC5)CC4)cc3OC)nc2N1C(C)C [volasertib]
Summary of the method: as §1

[3] = compound: CCn1c(C(=O)N(C2CC2)C2CC2)cc2c3c(ncn3C)c(Nc3cc(C)n(C)n3)nc21
Summary of the method: as §1

[4] = compound: CCn1cc(-c2ccnc3[nH]c(-c4cccc(CN(C)C)c4)cc23)c(-c2ccc(NC(=O)N(C)C)cc2)n1
Summary of the method: as §1

[5] = compound: CN1CCC(CNc2ccc3ncc(-c4cccc(OC(F)(F)F)c4)n3n2)CC1
Summary of the method: as §1

saracatinib = compound: CN1CCN(CCOc2cc(OC3CCOCC3)c3c(Nc4c(Cl)ccc5c4OCO5)ncnc3c2)CC1 [saracatinib]
Summary of the method: as §1

sotrastaurin = compound: CN1CCN(c2nc(C3=C(c4c[nH]c5ccccc45)C(=O)NC3=O)c3ccccc3n2)CC1 [sotrastaurin]
Summary of the method: as §1

Row | Target | log2 fold change (vemurafenib) | log2 fold change [1] | log2 fold change (barasertib) | log2 fold change [2] | log2 fold change (volasertib) | log2 fold change [3] | log2 fold change [4] | log2 fold change [5] | log2 fold change (saracatinib) | log2 fold change (sotrastaurin)
1 | PROS1 (UniProt P07225) | inactive: -0.057 | inactive: 0.008 | inactive: 0.005 | inactive: 0.042 | inactive: 0.028 | inactive: 0.007 | inactive: -0.002 | inactive: 0.047 | inactive: 0.006 | inactive: 0.011
2 | PPME1 isoform 4 (UniProt Q9Y570) | inactive: 0.005 | inactive: 0.003 | inactive: -0.045 | inactive: -0.006 | inactive: 0.016 | inactive: 0.028 | inactive: -0.015 | inactive: 0.008 | inactive: -0.01 | inactive: -0.008
3 | PRKAR2A (UniProt P13861) | inactive: -0.01 | inactive: 0.033 | inactive: 0.055 | inactive: 0.011 | inactive: -0.013 | inactive: 0.009 | inactive: 0.065 | active: -0.26 | inactive: -0.012 | inactive: -0.154
4 | PRPF4 (UniProt O43172) | inactive: -0.011 | inactive: 0.022 | inactive: 0.002 | inactive: 0.06 | inactive: -0.019 | inactive: -0.004 | inactive: 0.201 | inactive: -0.084 | inactive: 0.01 | inactive: -0.023
5 | PPP1R12A (UniProt O14974) | inactive: -0.007 | inactive: 0.012 | inactive: 0.032 | inactive: 0.014 | inactive: -0.01 | inactive: -0.003 | inactive: -0.022 | inactive: -0.007 | inactive: 0.001 | inactive: 0.006
6 | PRKACA (UniProt P17612) | inactive: -0.036 | inactive: -0.016 | inactive: 0.006 | inactive: 0.095 | inactive: -0.043 | inactive: -0.081 | inactive: -0.418 | inactive: 0.351 | inactive: -0.075 | inactive: 0.216
7 | PPP2CB (UniProt P62714) | inactive: -0.01 | inactive: 0.03 | inactive: 0.001 | inactive: 0.014 | inactive: 0.017 | inactive: -0.012 | inactive: -0.066 | inactive: 0.034 | inactive: -0.023 | inactive: -0.017
8 | PREB (UniProt Q9HCU5) | inactive: 0.025 | inactive: 0.021 | inactive: -0.012 | inactive: 0.032 | inactive: 0.021 | inactive: -0.013 | inactive: -0.021 | inactive: 0.041 | inactive: -0.001 | inactive: 0.022
9 | PPP2R3C (UniProt Q969Q6) | inactive: -0.081 | inactive: -0.094 | inactive: 0.094 | inactive: -0.244 | inactive: 0 | inactive: 0.071 | active: -0.392 | inactive: 0.115 | inactive: 0.04 | 
10 | PPWD1 (UniProt Q96BP3) | inactive: 0.031 | inactive: 0.021 | inactive: 0.006 | inactive: -0.013 | inactive: -0.013 | inactive: -0.006 | inactive: 0.013 | inactive: -0.026 | inactive: -0.021 | inactive: 0.023
11 | PPP1R35 (UniProt Q8TAP8) | inactive: 0.006 | inactive: -0.005 | inactive: 0.018 | inactive: 0.064 | inactive: 0.011 | inactive: 0.236 | inactive: 0.042 | inactive: -0.006 | inactive: 0.008 | inactive: -0.017
12 | PRPF4B (UniProt Q13523) | inactive: -0.001 | inactive: 0.068 | inactive: -0.017 | inactive: -0.007 | inactive: -0.022 | inactive: -0.017 | inactive: 0.006 | inactive: 0.043 | inactive: -0.014 | inactive: -0.001
13 | PPT2 isoform 3 (UniProt Q9UMR5) | inactive: 0.007 | inactive: 0.012 | inactive: 0.028 | inactive: 0.01 | inactive: -0.023 | inactive: -0.026 | inactive: 0.007 | inactive: 0.018 | inactive: -0.011 | inactive: 0.003
14 | PRDX6 (UniProt P30041) | inactive: 0.005 | inactive: -0.024 | inactive: -0.005 | inactive: 0.018 | inactive: 0.021 | inactive: 0.014 | inactive: 0.075 | inactive: -0.033 | inactive: -0.019 | inactive: 0.002
15 | PPP2R1A (UniProt P30153) | inactive: -0.025 | inactive: -0.011 | inactive: 0.009 | inactive: -0.005 | inactive: -0.009 | inactive: 0.007 | inactive: 0.051 | inactive: -0.026 | inactive: 0.007 | inactive: -0.019

Source: the supplement of paper PMC10849652
